Protein sequences, listed by entry. Tags and fused reporters are not part of them. Residues count along the entry.
UniProt Q16552, 24-155: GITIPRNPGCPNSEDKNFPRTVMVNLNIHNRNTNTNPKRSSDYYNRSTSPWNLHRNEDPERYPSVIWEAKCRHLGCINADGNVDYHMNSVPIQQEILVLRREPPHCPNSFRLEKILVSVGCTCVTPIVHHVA

In patent US20190381088:

Target: IL-17 (human IL-17) (Homo sapiens) (UniProt Q16552)
Assay: activity assay
Conditions: rest 2'-OH RNA, 3' idT (stated for in vivo tests), 5' symmetrical brancher with spacer + ssH amino linker + 2 x 40 kDa branched PEG (80 kDa total), in vivo mouse air pouch model, human IL-17 0.5 ug, IL-6 significantly reduced, 0.3-3 mg/kg i.p.

Measured: functional effect of the aptamer

GGGUAGCCGGAGGAGTCAGTAAUCGGUACCC
active: 2'-OMe at 1-4,7,8,10,13,14,23-26,28-31, 2'-F at 11,17,18,27, PS at g6, DNA at A5,G9,T16,T20 | 2'-OMe at 1-4,7,8,10,13,14,23-26,28, 2'-F at 11,17,18,27, PS at g6, DNA at A5,G9,T16,T20,C29-C31 | 2'-OMe at 1-5,7,8,10,11,13,14,17,21,23-31, 2'-F at 18, PS at g6,g15,g19, DNA at G9,T16,T20
